Among the data in publication PMC5397179 are binding values, retold here.

The chains behind the UniProt entries cited, without tags or fusion partners. Where a name states a change or a piece, a line headed by the entry shows the natural chain unless it says otherwise.
UniProt P20429: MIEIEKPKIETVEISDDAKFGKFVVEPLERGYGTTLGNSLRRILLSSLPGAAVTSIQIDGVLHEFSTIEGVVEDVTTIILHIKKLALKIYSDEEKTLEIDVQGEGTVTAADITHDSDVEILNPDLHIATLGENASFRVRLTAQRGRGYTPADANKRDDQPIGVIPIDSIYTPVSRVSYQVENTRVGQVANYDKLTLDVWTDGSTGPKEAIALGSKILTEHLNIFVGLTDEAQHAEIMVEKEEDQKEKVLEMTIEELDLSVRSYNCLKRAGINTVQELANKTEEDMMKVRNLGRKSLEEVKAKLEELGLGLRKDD

Positions count from the first letter of the chain named. No constants are given. Whether binding was seen depends on the method and setting. Binding seen in cells or lysates may run through a third protein. Some binding calls cover weakened binding; strength is not graded here. For some assays here: Sequences can lack the tags named with a protein.

Test [1] concerns the target T1, Biotinylated full length PcrA K712A (Geobacillus stearothermophilus) (UniProt P56255).
T1 sequence (chain, biotin): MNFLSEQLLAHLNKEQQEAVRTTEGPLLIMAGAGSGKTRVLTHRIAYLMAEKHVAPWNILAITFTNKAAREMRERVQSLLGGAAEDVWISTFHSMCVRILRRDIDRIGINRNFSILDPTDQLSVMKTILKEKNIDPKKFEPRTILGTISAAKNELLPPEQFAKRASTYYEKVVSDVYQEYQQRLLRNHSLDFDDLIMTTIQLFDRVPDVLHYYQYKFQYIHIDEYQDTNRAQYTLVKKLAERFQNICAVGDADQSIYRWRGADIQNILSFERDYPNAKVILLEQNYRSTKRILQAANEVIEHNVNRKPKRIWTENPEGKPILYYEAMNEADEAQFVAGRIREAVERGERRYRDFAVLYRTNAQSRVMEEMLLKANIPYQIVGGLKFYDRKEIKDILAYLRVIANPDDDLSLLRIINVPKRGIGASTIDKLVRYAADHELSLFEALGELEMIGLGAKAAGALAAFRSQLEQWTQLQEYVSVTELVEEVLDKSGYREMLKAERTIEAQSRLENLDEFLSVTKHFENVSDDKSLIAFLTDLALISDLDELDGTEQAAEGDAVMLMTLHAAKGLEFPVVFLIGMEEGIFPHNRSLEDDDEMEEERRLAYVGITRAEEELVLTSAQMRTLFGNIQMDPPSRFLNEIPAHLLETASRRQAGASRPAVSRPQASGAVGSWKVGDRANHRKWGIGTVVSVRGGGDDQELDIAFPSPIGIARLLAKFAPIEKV
Nature of the test: pull-down; biotinylated purified bait on streptavidin-coated magnetic beads; prey: DNA/RNA-depleted extract of B. subtilis 168; SDS-PAGE and western blot with an anti-RNAP beta antibody; only the target purified.

The target of test [2] is T2, Biotinylated full length PcrA L714A (Geobacillus stearothermophilus) (UniProt P56255).
T2 sequence (chain, biotin): T1 sequence (chain, biotin) with A712K, L714A
The description is as above.

Test [3] has as its target T3, Biotinylated full length PcrA (Geobacillus stearothermophilus), wild type (Geobacillus stearothermophilus) (UniProt P56255).
T3 sequence (chain, biotin): T1 sequence (chain, biotin) with A712K
The description is as above.

For test [4], the target named is T4, His-tagged PcrA-short Ct (PcrA-sCt, residues 673-724 of Geobacillus stearothermophilus PcrA) (Geobacillus stearothermophilus) (UniProt P56255).
T4 sequence: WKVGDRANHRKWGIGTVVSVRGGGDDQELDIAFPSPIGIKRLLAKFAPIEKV
Nature of the test: pull-down; His-tagged purified bait on Ni2+-NTA magnetic beads; prey: DNA/RNA-depleted extract of B. subtilis 168; SDS-PAGE and western blot with an anti-RNAP beta antibody; only the target purified.

In test [5] the target is T5, His-tagged PcrA-Ct (C-terminal domain of Geobacillus stearothermophilus PcrA, residues 653-724) (Geobacillus stearothermophilus) (UniProt P56255).
T5 sequence: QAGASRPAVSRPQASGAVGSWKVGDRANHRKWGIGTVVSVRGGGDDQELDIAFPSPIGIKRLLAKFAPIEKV
The test is described as above.

As for “Bacillus subtilis RNA polymerase (RNAP), endogenous in cell extract (from UniProt P20429 1-314; P37870 1-1193; P37871 1-1199; P12464 1-173; O35011 1-67) (complex)”, the binding result in test [1] is “binds weakly”; in test [2], “binds weakly”; in test [3] it was “binds”; in test [4], “binds”; in test [5] it was “binds”.
